PubChem BioAssay AID1224830 – NIAID – 2016
The whole screen tested about 18,000 reagents; below is an unselected part. Over the whole deposit, about 2,900 (16%) got an active call. 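Calls are made per well; low scores hint the gene aids the LPS response, high scores that it dampens it.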 Repeated entries: four replicate wells of each siRNA pool.

- Purpose: 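Host factors that control LPS-induced TNF expression in human macrophages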 (primary screen)
- Cells: human THP-1 monocytic leukaemia cells, TNF dual-luciferase reporter clone, PMA-differentiated to macrophage-like cells
- Reagent: siRNA pool against human genes, 50 nM
- Time to read-out: LPS for 4 h, given about 3 days after siRNA transfection
- Conditions: bacterial LPS (TLR4 ligand), 10 ng/ml
- Measured: 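Ratio of firefly to renilla light, scaled to the plate median and expressed as a robust z-score per replicate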
- Reading the numbers: TNF reporter robust z-score: higher = stronger TNF reporter response to LPS
- Rule for the call: 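Each well counts as active if its z-score is over 2.8 or under -1.5; controls are left without a call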

The opening 9 entries as a preview:
| gene | TNF reporter robust z-score | Outcome |
| --- | --- | --- |
| NUAK1 (NUAK family kinase 1) | 1.82 | inactive |
| NUAK1 (NUAK family kinase 1) | 0.06 | inactive |
| NUAK1 (NUAK family kinase 1) | -0.71 | inactive |
| NUAK1 (NUAK family kinase 1) | 0.81 | inactive |
| APOBR (apolipoprotein B receptor) | 0.33 | inactive |
| APOBR (apolipoprotein B receptor) | 0.09 | inactive |
| APOBR (apolipoprotein B receptor) | 0.07 | inactive |
| APOBR (apolipoprotein B receptor) | 0.25 | inactive |
| RMI2 (RecQ mediated genome instability 2) | -0.31 | inactive |

Main list, from the start:
| gene | TNF reporter robust z-score | Outcome |
| --- | --- | --- |
| NUAK1 (NUAK family kinase 1) | 1.82 | inactive |
| NUAK1 (NUAK family kinase 1) | 0.06 | inactive |
| NUAK1 (NUAK family kinase 1) | -0.71 | inactive |
| NUAK1 (NUAK family kinase 1) | 0.81 | inactive |
| APOBR (apolipoprotein B receptor) | 0.33 | inactive |
| APOBR (apolipoprotein B receptor) | 0.09 | inactive |
| APOBR (apolipoprotein B receptor) | 0.07 | inactive |
| APOBR (apolipoprotein B receptor) | 0.25 | inactive |
| RMI2 (RecQ mediated genome instability 2) | -0.31 | inactive |
| RMI2 (RecQ mediated genome instability 2) | 0.04 | inactive |
| RMI2 (RecQ mediated genome instability 2) | 0.02 | inactive |
| RMI2 (RecQ mediated genome instability 2) | 0.24 | inactive |
| RPP30 (ribonuclease P/MRP subunit p30) | 0 | inactive |
| RPP30 (ribonuclease P/MRP subunit p30) | 0.06 | inactive |
| RPP30 (ribonuclease P/MRP subunit p30) | -0.44 | inactive |
| RPP30 (ribonuclease P/MRP subunit p30) | 0.18 | inactive |
| RRM1 (ribonucleotide reductase catalytic subunit M1) | -0.08 | inactive |
| RRM1 (ribonucleotide reductase catalytic subunit M1) | -0.39 | inactive |
| RRM1 (ribonucleotide reductase catalytic subunit M1) | -0.26 | inactive |
| RRM1 (ribonucleotide reductase catalytic subunit M1) | 0.56 | inactive |
| GFRA1 (GDNF family receptor alpha 1) | -0.2 | inactive |
| GFRA1 (GDNF family receptor alpha 1) | 0.19 | inactive |
| GFRA1 (GDNF family receptor alpha 1) | -0.6 | inactive |
| GFRA1 (GDNF family receptor alpha 1) | -0.08 | inactive |
| STIL (STIL centriolar assembly protein) | 1.47 | inactive |
| STIL (STIL centriolar assembly protein) | 0.68 | inactive |
| STIL (STIL centriolar assembly protein) | 1.66 | inactive |
| STIL (STIL centriolar assembly protein) | 0.45 | inactive |
| H4C16 (H4 histone 16) | 1.44 | inactive |
| H4C16 (H4 histone 16) | 1.05 | inactive |
| H4C16 (H4 histone 16) | 0.34 | inactive |
| H4C16 (H4 histone 16) | 0.56 | inactive |
| TMEM176B (transmembrane protein 176B) | -1.74 | active |
| TMEM176B (transmembrane protein 176B) | -1.69 | active |
| TMEM176B (transmembrane protein 176B) | -1.47 | inactive |
| TMEM176B (transmembrane protein 176B) | -1.29 | inactive |
| RRH (retinal pigment epithelium-derived rhodopsin homolog) | -1.26 | inactive |
| RRH (retinal pigment epithelium-derived rhodopsin homolog) | -0.38 | inactive |
| RRH (retinal pigment epithelium-derived rhodopsin homolog) | -0.99 | inactive |
| RRH (retinal pigment epithelium-derived rhodopsin homolog) | -0.72 | inactive |
| ZNF432 (zinc finger protein 432) | 2.21 | inactive |
| ZNF432 (zinc finger protein 432) | 1.12 | inactive |
| ZNF432 (zinc finger protein 432) | 1.1 | inactive |
| ZNF432 (zinc finger protein 432) | 1.43 | inactive |
| LRRN1 (leucine rich repeat neuronal 1) | 4.16 | active |
| LRRN1 (leucine rich repeat neuronal 1) | 2.02 | inactive |
| LRRN1 (leucine rich repeat neuronal 1) | 0.45 | inactive |
| LRRN1 (leucine rich repeat neuronal 1) | 0.75 | inactive |
| SPINK1 (serine peptidase inhibitor Kazal type 1) | 1.03 | inactive |
| SPINK1 (serine peptidase inhibitor Kazal type 1) | 0.17 | inactive |
| SPINK1 (serine peptidase inhibitor Kazal type 1) | -0.3 | inactive |
| SPINK1 (serine peptidase inhibitor Kazal type 1) | 0.36 | inactive |
| ZXDB (zinc finger X-linked duplicated B) | 1.79 | inactive |
| ZXDB (zinc finger X-linked duplicated B) | 0.21 | inactive |
| ZXDB (zinc finger X-linked duplicated B) | 0.96 | inactive |
| ZXDB (zinc finger X-linked duplicated B) | -1.39 | inactive |
| WEE1 (WEE1 G2 checkpoint kinase) | 1.02 | inactive |
| WEE1 (WEE1 G2 checkpoint kinase) | 0.83 | inactive |
| WEE1 (WEE1 G2 checkpoint kinase) | 0.28 | inactive |
| WEE1 (WEE1 G2 checkpoint kinase) | -1.07 | inactive |
| ZKSCAN1 (zinc finger with KRAB and SCAN domains 1) | 1.65 | inactive |
| ZKSCAN1 (zinc finger with KRAB and SCAN domains 1) | 1.21 | inactive |
| ZKSCAN1 (zinc finger with KRAB and SCAN domains 1) | 1.6 | inactive |
| PRPF38B (pre-mRNA processing factor 38B) | -1.4 | inactive |
| PRPF38B (pre-mRNA processing factor 38B) | -0.66 | inactive |
| PRPF38B (pre-mRNA processing factor 38B) | -0.78 | inactive |
| PRPF38B (pre-mRNA processing factor 38B) | 0.24 | inactive |
| ATP5MC1 (ATP synthase membrane subunit c locus 1) | -0.23 | inactive |
| ATP5MC1 (ATP synthase membrane subunit c locus 1) | -0.27 | inactive |
| ATP5MC1 (ATP synthase membrane subunit c locus 1) | 0.56 | inactive |
| ATP5MC1 (ATP synthase membrane subunit c locus 1) | 0.27 | inactive |
| PDE1B (phosphodiesterase 1B) | -0.52 | inactive |
| PDE1B (phosphodiesterase 1B) | -0.55 | inactive |
| PDE1B (phosphodiesterase 1B) | -1.19 | inactive |
| PDE1B (phosphodiesterase 1B) | -1.32 | inactive |
| MTX1 (metaxin 1) | -0.43 | inactive |
| MTX1 (metaxin 1) | -0.54 | inactive |
| MTX1 (metaxin 1) | -0.72 | inactive |
| MTX1 (metaxin 1) | -0.9 | inactive |
| MRPS35 (mitochondrial ribosomal protein S35) | -1.9 | active |
| MRPS35 (mitochondrial ribosomal protein S35) | -2.12 | active |
| MRPS35 (mitochondrial ribosomal protein S35) | -1.81 | active |
| MRPS35 (mitochondrial ribosomal protein S35) | -1.89 | active |
| PKIA (cAMP-dependent protein kinase inhibitor alpha) | -0.26 | inactive |
| PKIA (cAMP-dependent protein kinase inhibitor alpha) | -0.84 | inactive |
| PKIA (cAMP-dependent protein kinase inhibitor alpha) | -0.92 | inactive |
| PKIA (cAMP-dependent protein kinase inhibitor alpha) | 0.12 | inactive |
| MOK (MOK protein kinase) | -2.01 | active |
| MOK (MOK protein kinase) | -1.83 | active |
| MOK (MOK protein kinase) | -1.98 | active |
| MOK (MOK protein kinase) | -1.73 | active |
| PSMC2 (proteasome 26S subunit, ATPase 2) | -1.57 | active |
| PSMC2 (proteasome 26S subunit, ATPase 2) | -1.38 | inactive |
| PSMC2 (proteasome 26S subunit, ATPase 2) | -1.46 | inactive |
| PSMC2 (proteasome 26S subunit, ATPase 2) | -1.2 | inactive |
| UNC13A (unc-13 homolog A) | -0.58 | inactive |
| UNC13A (unc-13 homolog A) | 1.39 | inactive |
| UNC13A (unc-13 homolog A) | 0.45 | inactive |
| UNC13A (unc-13 homolog A) | 0.29 | inactive |
| SLC4A7 | -1.14 | inactive |
| SLC4A7 | -1.34 | inactive |
| SLC4A7 | -1.02 | inactive |
| SLC4A7 | -1.33 | inactive |
| TBC1D28 (TBC1 domain family member 28) | 0.59 | inactive |
| TBC1D28 (TBC1 domain family member 28) | 0.84 | inactive |
| TBC1D28 (TBC1 domain family member 28) | 0.45 | inactive |
| TBC1D28 (TBC1 domain family member 28) | 2.54 | inactive |
| CORO2B (coronin 2B) | 1.25 | inactive |
| CORO2B (coronin 2B) | 1.36 | inactive |
| CORO2B (coronin 2B) | 1.87 | inactive |
| CORO2B (coronin 2B) | 1.53 | inactive |
